# Results as given in the supplement of paper PMC12819154, “High-throughput peptide-centric local stability assay extends protein–ligand identification to membrane proteins, tissues and bacteria” (Nature Structural & Molecular Biology, 2025).
# By UniProt entry, the sequences of proteins in these tests, tags left out. Where a name states a change or a piece, a line headed by the entry shows the natural chain unless it says otherwise.
# UniProt O60765: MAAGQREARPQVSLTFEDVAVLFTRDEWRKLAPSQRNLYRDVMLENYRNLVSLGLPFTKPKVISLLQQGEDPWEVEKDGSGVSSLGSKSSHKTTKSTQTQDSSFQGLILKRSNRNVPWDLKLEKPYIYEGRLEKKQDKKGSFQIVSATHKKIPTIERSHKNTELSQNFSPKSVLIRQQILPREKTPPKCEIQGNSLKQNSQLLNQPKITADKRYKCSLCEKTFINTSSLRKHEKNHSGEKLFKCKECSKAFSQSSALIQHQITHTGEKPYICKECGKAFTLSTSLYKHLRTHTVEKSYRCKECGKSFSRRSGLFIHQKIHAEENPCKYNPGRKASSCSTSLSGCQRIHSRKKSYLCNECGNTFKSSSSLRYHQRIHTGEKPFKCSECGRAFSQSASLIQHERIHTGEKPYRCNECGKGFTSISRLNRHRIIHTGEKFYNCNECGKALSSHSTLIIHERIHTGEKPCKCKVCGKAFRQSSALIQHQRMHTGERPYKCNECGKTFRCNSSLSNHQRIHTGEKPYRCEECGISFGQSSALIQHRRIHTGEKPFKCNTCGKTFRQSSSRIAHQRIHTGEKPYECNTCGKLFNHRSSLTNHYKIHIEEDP
# UniProt O15524: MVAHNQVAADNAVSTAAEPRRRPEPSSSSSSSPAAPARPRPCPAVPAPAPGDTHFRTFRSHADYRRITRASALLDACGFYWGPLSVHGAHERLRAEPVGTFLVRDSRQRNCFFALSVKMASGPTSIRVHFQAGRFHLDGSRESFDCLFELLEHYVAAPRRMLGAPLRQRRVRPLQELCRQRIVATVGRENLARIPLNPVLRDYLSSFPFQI
# UniProt O15534, whole entry: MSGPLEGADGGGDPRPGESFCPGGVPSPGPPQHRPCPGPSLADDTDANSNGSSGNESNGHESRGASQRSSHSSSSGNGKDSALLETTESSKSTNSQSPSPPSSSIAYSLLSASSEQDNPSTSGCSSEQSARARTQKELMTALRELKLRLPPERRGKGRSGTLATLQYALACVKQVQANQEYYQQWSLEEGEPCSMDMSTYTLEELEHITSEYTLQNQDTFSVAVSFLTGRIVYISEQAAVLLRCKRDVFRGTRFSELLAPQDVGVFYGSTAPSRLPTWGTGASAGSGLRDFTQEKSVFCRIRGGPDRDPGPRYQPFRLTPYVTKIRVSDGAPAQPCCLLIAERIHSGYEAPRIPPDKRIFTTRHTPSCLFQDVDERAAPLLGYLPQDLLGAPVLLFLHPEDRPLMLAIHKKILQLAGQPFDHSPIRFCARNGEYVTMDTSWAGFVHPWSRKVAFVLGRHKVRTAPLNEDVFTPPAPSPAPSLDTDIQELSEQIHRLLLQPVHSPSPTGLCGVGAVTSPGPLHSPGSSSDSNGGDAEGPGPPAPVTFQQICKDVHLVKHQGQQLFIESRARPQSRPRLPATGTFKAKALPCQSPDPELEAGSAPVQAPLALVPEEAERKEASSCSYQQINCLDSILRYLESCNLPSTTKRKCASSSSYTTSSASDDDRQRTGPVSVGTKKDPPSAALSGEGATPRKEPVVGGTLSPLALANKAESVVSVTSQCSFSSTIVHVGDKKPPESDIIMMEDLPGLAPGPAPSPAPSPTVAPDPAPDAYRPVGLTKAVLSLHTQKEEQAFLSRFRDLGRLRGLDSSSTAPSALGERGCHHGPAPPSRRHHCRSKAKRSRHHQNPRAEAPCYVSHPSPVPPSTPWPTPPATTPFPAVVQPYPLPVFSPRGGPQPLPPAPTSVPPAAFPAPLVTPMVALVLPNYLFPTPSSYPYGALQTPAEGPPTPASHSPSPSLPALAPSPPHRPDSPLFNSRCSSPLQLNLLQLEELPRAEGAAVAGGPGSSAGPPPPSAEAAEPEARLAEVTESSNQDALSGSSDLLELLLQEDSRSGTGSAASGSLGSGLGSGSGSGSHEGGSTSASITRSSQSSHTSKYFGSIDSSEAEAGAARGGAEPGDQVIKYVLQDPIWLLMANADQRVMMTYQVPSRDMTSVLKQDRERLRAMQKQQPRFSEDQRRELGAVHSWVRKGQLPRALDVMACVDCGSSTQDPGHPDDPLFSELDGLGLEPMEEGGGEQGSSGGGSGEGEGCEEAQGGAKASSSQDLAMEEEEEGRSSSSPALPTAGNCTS
# UniProt O60921: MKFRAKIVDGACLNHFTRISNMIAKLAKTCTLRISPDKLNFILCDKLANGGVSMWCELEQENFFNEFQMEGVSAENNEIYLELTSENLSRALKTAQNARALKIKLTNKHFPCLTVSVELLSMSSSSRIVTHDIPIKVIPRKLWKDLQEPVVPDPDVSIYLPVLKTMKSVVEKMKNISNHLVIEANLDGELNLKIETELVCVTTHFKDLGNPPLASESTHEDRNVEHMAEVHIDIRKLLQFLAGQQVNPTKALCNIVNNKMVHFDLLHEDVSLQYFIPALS
# UniProt O43151: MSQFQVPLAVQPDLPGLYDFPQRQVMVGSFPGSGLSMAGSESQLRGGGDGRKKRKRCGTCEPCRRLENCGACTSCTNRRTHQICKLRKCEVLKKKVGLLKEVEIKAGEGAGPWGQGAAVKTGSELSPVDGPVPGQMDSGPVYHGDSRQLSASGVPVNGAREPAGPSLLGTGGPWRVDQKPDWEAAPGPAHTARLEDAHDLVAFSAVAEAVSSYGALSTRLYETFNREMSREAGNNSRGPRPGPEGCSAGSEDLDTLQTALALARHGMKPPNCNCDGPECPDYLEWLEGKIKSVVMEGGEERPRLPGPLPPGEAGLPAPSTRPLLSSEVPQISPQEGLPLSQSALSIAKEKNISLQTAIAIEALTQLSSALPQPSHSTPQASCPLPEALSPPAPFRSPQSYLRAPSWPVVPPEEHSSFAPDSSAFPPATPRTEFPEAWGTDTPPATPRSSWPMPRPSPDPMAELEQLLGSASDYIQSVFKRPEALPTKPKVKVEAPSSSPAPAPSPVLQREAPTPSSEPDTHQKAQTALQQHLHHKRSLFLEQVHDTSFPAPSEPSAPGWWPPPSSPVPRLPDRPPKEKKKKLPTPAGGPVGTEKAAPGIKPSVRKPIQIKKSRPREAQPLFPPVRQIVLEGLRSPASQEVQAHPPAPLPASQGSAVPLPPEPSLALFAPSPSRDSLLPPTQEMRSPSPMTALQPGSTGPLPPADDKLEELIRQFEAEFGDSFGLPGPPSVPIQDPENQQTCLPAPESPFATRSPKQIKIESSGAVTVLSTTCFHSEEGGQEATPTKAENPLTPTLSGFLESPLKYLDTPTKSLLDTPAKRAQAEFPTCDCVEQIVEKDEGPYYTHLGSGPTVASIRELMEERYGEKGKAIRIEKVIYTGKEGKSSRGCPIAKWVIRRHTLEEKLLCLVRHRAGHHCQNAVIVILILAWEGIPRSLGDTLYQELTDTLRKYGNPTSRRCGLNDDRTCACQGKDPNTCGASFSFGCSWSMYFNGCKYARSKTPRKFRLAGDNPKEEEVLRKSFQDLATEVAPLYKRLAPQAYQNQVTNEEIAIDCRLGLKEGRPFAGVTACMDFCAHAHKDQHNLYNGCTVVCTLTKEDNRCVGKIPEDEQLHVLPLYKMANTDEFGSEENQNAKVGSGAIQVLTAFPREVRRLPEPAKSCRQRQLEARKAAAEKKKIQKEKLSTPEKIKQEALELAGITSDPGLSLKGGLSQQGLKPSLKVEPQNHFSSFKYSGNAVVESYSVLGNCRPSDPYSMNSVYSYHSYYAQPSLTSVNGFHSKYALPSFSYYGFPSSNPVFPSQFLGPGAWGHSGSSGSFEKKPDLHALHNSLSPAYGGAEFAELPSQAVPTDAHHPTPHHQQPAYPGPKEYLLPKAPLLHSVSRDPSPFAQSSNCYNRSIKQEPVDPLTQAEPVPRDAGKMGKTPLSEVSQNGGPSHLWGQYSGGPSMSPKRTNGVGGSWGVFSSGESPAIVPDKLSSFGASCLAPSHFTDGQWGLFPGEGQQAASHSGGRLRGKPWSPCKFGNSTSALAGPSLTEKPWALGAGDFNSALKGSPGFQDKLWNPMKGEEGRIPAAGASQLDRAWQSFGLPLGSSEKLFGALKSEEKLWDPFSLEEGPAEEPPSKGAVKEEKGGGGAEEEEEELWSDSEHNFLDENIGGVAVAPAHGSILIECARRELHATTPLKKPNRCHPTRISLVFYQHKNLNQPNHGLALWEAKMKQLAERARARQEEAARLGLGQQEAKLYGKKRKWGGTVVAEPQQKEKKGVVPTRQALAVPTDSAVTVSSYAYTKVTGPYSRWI
# UniProt O60282: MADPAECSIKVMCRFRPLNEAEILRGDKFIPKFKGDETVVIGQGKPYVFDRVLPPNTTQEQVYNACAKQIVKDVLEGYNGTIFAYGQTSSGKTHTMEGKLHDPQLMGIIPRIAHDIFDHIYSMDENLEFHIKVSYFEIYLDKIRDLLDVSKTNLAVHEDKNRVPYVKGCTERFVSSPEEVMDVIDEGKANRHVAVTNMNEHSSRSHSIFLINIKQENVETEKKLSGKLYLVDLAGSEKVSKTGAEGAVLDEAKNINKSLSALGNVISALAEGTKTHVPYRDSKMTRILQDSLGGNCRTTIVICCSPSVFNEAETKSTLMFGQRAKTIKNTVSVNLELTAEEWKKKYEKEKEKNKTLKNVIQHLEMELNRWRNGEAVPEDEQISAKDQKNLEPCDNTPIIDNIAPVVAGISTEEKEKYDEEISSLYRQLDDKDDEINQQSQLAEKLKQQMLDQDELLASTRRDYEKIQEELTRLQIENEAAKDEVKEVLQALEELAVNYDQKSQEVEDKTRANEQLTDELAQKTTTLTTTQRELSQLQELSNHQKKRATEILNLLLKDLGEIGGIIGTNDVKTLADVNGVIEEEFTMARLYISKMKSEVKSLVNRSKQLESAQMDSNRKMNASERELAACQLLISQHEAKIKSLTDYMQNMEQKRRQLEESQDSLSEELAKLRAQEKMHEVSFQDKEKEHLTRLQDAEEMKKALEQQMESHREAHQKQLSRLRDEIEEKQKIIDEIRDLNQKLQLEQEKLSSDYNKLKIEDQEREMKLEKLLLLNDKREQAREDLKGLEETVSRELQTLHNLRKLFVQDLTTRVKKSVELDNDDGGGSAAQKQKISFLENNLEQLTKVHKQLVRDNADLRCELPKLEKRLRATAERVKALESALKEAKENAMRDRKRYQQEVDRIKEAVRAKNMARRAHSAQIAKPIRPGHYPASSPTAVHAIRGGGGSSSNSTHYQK
# UniProt O60825: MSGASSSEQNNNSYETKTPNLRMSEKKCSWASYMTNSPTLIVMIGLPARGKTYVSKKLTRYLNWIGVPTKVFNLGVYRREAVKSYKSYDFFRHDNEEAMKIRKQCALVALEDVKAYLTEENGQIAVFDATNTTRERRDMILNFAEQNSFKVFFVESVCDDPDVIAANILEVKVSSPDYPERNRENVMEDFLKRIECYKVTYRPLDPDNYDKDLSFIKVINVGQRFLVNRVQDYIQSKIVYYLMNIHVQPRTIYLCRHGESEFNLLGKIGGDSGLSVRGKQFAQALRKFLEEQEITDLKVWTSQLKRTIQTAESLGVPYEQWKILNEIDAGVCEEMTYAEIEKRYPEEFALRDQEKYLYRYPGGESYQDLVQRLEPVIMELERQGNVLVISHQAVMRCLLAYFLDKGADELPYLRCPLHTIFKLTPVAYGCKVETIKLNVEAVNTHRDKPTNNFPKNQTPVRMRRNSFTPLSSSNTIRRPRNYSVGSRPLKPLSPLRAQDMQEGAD
# UniProt O43396: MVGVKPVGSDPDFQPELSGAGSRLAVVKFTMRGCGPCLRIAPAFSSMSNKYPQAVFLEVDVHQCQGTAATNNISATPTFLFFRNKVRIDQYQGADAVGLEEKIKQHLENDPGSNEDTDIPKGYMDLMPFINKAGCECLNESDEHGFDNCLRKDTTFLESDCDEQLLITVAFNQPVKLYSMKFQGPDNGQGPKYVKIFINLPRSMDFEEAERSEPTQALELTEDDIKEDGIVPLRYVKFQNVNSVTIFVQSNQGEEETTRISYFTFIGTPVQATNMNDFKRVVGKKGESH
# UniProt O15530: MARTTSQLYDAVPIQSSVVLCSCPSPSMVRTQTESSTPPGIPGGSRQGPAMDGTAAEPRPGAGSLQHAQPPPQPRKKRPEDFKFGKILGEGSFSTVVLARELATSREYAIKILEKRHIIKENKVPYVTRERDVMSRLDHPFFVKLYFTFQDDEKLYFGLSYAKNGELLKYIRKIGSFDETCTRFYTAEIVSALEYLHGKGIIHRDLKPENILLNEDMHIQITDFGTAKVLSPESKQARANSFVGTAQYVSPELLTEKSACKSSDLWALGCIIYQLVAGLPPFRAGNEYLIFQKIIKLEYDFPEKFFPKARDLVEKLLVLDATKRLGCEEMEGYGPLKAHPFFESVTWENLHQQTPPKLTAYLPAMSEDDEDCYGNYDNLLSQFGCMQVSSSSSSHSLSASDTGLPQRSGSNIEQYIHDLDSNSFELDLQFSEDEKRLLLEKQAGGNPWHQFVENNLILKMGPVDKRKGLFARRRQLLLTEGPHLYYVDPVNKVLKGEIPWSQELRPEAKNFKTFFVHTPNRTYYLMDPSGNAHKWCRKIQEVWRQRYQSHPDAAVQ
# This is one part of the list. Most entries show no effect beyond the scatter of the controls.
# Compound: CN[C@@H]1C[C@H]2O[C@@](C)([C@@H]1OC)n1c3ccccc3c3c4c(c5c6ccccc6n2c5c31)C(=O)NC4 [staurosporine]
# Assay: log2 fold change of tryptic peptide abundance, ligand vs vehicle (limited proteolysis) (log2 ratio); higher = more trypsin-susceptible (destabilized)
# Conditions: ligand concentration: 20 uM; sample: K562 cleared lysate; digestion: 4 min, 22 C (HT-PELSA RT4min, Orbitrap Astral)
row,Target,log2 fold change
1,"AKR7A2 (peptide sequence: MDAPASAAAVR, peptide start residue: 51) (UniProt O43488)",-0.152
2,"PRPF4 (peptide sequence: LHKEIPETTR, peptide start residue: 198) (UniProt O43172)",0.89
3,"SNAP91 (peptide sequence: FIQYLASR, peptide start residue: 93) (UniProt O60641)",0.119
4,"SORBS3 (peptide sequence: ELTLQKGDIVYIHK, peptide start residue: 398) (UniProt O60504)",-0.481
5,"MED7 (peptide sequence: VMMEVQKR, peptide start residue: 137) (UniProt O43513)",0.362
6,"BCL2L11 (peptide sequence: SPLFIFMR, peptide start residue: 77) (UniProt O43521)",-0.324
7,"UniProt O60765 (peptide sequence: NLVSLGLPFTK, peptide start residue: 49)",-0.0755
8,"PEX1 (peptide sequence: LAHALNDMIK, peptide start residue: 688) (UniProt O43933)",0.685
9,"TBC1D4 (peptide sequence: KAIHQQILLLR, peptide start residue: 845) (UniProt O60343)",-0.565
10,"UniProt O15524 (peptide sequence: VAHNQVAADNAVSTAAEPR, peptide start residue: 2)",0.182
11,"UniProt O43310 (peptide sequence: HPPGDKGEAGAHR, peptide start residue: 257)",0.386
12,"PJA2 (peptide sequence: AVWPKPAGGYQTITGR, peptide start residue: 19) (UniProt O43164)",0.369
13,"XRCC2 (peptide sequence: ASSSSEEPSHASR, peptide start residue: 202) (UniProt O43543)",-0.242
14,"UniProt O60341 (peptide sequence: HVKDEQIEHWKK, peptide start residue: 422)",0.868
15,"UniProt O75346 (peptide sequence: FSNSNTYK, peptide start residue: 156)",-0.157
16,"ARPC5 (peptide sequence: DRAGSIVLK, peptide start residue: 73) (UniProt O15511)",0.453
17,"SNX2 (peptide sequence: EVGRFEK, peptide start residue: 474) (UniProt O60749)",0.263
18,"CYTH3 (peptide sequence: ACKTEADGR, peptide start residue: 337) (UniProt O43739)",-0.583

# Individual results from the results shown.
# SNX2 (peptide sequence: EVGRFEK, peptide start residue: 474) (UniProt O60749) – log2 fold change: 0.263
# SNAP91 (peptide sequence: FIQYLASR, peptide start residue: 93) (UniProt O60641) – log2 fold change: 0.119
# PRPF4 (peptide sequence: LHKEIPETTR, peptide start residue: 198) (UniProt O43172) – log2 fold change: 0.89

# Following part

row,Target,log2 fold change
1,"MAFG (peptide sequence: GPLAAGLGPLVPGK, peptide start residue: 131) (UniProt O15525)",-0.439
2,"CLASP2 (peptide sequence: VLVNSASAQK, peptide start residue: 483) (UniProt O75122)",-0.136
3,"DNAJC13 (peptide sequence: YHPDKNPEGR, peptide start residue: 1331) (UniProt O75165)",0.213
4,"UniProt O43159 (peptide sequence: VAEVSSRFEDVR, peptide start residue: 390)",-0.468
5,"PER1 (peptide sequence: KDPPSAALSGEGATPR, peptide start residue: 679) (UniProt O15534)",-0.311
6,"HNRNPR (peptide sequence: DYAFVHFEDR, peptide start residue: 375) (UniProt O43390)",-0.119
7,"CNOT3 (peptide sequence: KLQGEIDR, peptide start residue: 6) (UniProt O75175)",0.182
8,"HUS1 (peptide sequence: IVTHDIPIKVIPR, peptide start residue: 128) (UniProt O60921)",-0.482
9,"KIAA0556 (peptide sequence: SEQLEEAMNAHSEESK, peptide start residue: 626) (UniProt O60303)",0.218
10,"UniProt O43151 (peptide sequence: WGGTVVAEPQQK, peptide start residue: 1746)",0.352
11,"PLRG1 (peptide sequence: LRNEYGPVLHMPTSK, peptide start residue: 48) (UniProt O43660)",-0.247
12,"TBX1 (peptide sequence: NHRPGALPLMSAFAR, peptide start residue: 306) (UniProt O43435)",-0.451
13,"TBC1D12 (peptide sequence: SDACLLGSGSK, peptide start residue: 106) (UniProt O60347)",0.532
14,"UniProt O60282 (peptide sequence: CELPKLEK, peptide start residue: 858)",0.162
15,"PFKFB2 (peptide sequence: YLNWIGVPTK, peptide start residue: 61) (UniProt O60825)",-0.301
16,"TXNL1 (peptide sequence: IFINLPR, peptide start residue: 196) (UniProt O43396)",0.114
17,"UniProt O15516 (peptide sequence: FSQGQQLVTK, peptide start residue: 703)",0.407
18,"UniProt O15530 (peptide sequence: YQSHPDAAVQ, peptide start residue: 547)",0.0516
